From US10206394B2, “Herbicidal compounds” (Syngenta Participations AG, priority 2014, dated 2019)
Values joined by “and” are separate entries in the source; they are usually repeats but may differ in a detail not shown here. Equal values may be shown once. The name of at least one read-out is uncertain.

System: Lolium perenne (LOLPE)
Test: Glasshouse assay for herbicidal activity (pre- and post-emergence), percentage phytotoxicity
Type: in vivo
Conditions: Rate 250 g/ha, assessed visually 15 DAA, 100%=total damage, 0%=no damage
Method: Test—Glasshouse Assay for Herbicidal Activity
Seeds of a variety of monocotyledonous and dicotyledonous test plants are sown in standard soil in pots. The plants are cultivated for one day (for pre-emergence (PRE)) or for about 12 days (for post-emergence (POST)) under controlled conditions in a glasshouse (warm climate species at 24/18° C., cool climate species at 20/16° C., both at day/night; 16 hours light; 65% humidity).
The test plants are then grown on, in a glasshouse (greenhouse) under controlled conditions (warm climate species at 24/18° C., cool climate species at 20/16° C., both at day/night; 16 hours light; 65% humidity) and are watered twice daily. 15 days after application of the test herbicide (15 DAA) (for post-emergence), and 20 days after application of the test herbicide (20 DAA) (for pre-emergence), the test plants are evaluated visually, and an assessed percentage phytotoxicity score is given for each herbicidal application on each plant species (with 100%=total damage to plant; 0%=no damage to plant).
The plant species tested are as follows: Alopecurus myosuroides (ALOMY), Avena fatua (AVEFA), Lolium perenne (LOLPE), Echinochloa crus-galli (ECHCG).

In the case of C=CCCNC(=O)CC1CC(=O)C(c2c(C)cc(C)cc2C)C1=O (stereo not shown) [Compound A94], the “Post-emergence herbicidal activity (percentage phytotoxicity) LOLPE POST” value is reported as 60% and 90%.
